The target in the test is myocyte enhancer factor 2A (human (endogenous in HRECs)) (UniProt Q02078). Nature of the test: co-IP; whole cell extract of HRECs treated with or without 10 µM CAPE for 24 h; 500 µg protein with 1 µg primary antibody at 4°C overnight, Dynabeads Protein G 2 h; lysis buffer 20 mM Tris-HCl pH 7.5, 150 mM NaCl, 1% Triton X-100; Western blot of HDAC1 and MEF2D.

Sequences of proteins named here, by UniProt entry; tags and fusion partners are left off.
UniProt Q02078: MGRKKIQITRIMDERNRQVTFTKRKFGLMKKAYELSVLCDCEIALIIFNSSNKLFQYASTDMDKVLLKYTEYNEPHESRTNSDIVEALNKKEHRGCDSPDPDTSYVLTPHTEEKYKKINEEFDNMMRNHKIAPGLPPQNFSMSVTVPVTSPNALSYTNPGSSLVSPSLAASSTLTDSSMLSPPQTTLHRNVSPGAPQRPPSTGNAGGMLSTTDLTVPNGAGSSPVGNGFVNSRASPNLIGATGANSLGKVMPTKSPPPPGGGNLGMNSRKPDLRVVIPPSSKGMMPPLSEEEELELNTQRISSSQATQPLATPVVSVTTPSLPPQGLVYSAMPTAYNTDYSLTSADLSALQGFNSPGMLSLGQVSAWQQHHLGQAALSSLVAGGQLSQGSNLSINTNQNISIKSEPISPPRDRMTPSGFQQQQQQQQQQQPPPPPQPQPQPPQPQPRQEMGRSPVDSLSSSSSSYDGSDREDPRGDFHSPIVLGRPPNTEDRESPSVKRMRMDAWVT
UniProt Q13547: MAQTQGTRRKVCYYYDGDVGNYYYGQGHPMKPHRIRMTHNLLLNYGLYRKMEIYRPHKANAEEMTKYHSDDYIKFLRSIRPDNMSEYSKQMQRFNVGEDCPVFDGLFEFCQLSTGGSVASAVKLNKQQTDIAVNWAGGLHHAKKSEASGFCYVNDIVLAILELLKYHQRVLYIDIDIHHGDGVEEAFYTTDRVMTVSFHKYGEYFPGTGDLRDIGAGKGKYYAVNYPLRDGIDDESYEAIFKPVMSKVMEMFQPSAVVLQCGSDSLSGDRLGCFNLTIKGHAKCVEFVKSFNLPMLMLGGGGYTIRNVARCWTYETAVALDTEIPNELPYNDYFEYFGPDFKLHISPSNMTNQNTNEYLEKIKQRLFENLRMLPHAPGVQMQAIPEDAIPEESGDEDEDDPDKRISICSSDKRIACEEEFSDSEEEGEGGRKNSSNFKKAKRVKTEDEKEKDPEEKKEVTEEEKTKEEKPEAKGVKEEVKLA
UniProt Q14814: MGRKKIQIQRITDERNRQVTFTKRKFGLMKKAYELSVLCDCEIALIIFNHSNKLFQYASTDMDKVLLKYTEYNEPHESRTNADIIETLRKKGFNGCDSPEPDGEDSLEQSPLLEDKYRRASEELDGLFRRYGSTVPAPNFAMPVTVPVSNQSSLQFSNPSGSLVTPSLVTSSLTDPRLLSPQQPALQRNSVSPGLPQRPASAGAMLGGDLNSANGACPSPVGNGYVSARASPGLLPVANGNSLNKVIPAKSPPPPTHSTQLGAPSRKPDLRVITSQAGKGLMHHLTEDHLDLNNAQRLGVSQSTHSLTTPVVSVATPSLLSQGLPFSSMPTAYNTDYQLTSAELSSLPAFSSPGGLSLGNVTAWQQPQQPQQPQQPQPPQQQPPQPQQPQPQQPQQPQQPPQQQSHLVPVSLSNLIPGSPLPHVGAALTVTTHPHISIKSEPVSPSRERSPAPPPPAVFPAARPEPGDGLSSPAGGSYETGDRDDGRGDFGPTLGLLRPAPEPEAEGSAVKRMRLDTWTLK

For two substances, binding results are on record in paper PMC5525008.

No constants are given. Whether binding was seen depends on the method and setting. In cells and extracts the contact can be indirect. Some binding calls cover weakened binding; strength is not graded here.

Regarding “histone deacetylase 1 (from UniProt Q13547 1-482) (enzyme)”, the binding entry is “binds”.

Turning to “myocyte enhancer factor 2D (from UniProt Q14814 1-521)”, the binding result is “binds”.
